Reference: paper PMC11157866
These are yes or no findings as the source states them, for the method shown. In cells and extracts the contact can be indirect. Some binding calls cover weakened binding; strength is not graded here.

Chains of the proteins cited; added tags and fusions are not shown.
UniProt Q86U44: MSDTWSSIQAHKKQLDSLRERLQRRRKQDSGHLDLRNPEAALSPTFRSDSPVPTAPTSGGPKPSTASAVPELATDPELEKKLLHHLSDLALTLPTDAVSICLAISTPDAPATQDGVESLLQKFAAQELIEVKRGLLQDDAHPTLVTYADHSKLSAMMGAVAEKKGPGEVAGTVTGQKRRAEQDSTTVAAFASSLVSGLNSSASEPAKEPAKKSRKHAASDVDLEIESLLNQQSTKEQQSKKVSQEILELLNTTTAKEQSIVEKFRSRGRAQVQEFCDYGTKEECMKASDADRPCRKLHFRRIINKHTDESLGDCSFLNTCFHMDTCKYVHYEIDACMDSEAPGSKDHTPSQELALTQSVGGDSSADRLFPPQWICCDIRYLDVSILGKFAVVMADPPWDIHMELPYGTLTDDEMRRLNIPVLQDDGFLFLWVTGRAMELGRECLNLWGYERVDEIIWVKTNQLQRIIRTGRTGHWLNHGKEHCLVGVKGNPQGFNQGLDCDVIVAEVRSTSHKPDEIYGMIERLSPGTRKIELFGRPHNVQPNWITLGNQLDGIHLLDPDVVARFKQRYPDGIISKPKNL

Target: T1, melanoma cell adhesion molecule (MCAM) (human (endogenous in MG63 and U2OS)) (UniProt P43121)
T1 sequence: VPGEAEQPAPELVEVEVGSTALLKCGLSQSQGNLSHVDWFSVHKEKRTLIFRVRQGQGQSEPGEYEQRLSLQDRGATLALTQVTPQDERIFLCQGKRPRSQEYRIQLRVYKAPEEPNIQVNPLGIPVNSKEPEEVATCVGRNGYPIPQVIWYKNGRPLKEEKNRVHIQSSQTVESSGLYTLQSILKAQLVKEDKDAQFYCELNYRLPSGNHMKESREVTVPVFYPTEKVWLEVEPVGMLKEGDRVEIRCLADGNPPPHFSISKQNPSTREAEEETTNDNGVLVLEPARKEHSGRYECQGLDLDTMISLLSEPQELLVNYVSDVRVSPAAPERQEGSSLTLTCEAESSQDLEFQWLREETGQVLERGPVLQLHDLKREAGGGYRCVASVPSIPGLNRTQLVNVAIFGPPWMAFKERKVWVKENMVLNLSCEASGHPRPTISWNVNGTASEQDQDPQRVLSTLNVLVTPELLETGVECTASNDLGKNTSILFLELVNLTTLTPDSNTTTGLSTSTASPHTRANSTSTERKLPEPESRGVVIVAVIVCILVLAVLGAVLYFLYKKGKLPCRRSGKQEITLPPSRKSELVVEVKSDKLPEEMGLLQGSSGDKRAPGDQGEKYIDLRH
Assay: co-IP; Pierce Co-IP kit; MG63 and U2OS cells lysed in IP lysis buffer; supernatants incubated 6 h with G-agarose beads coated with antibody against METTL2 (so in the source) or MCAM; detection by western blot

binding: binds
Substance: methyltransferase 3 (METTL3) (from UniProt Q86U44 1-580)
